# From PubChem BioAssay AID1347076 (National Center for Advancing Translational Sciences (NCATS), 2019)
# Out of some 400,000 compounds screened, about 13,000 (3.2%) were called active. The inconclusive results got no clear call from the source; some entries with a clear call stand among them for comparison. Calls come from the whole dose curve; as a rule, active = well fitted cell-killing curve with a large enough effect; inconclusive = small, poorly fitted or top-dose-only effect, or effect the other way; inactive = flat fitted curve, though single readings scatter. A potency beside an inconclusive call is a rough fit, not a confirmed value.
# Test: qHTS assay for MDR1-selective chemotherapeutics: Primary screen using the drug-selected MDR subline cells KB-V1; note: nearly all actives have a fitted effect of over 60% in size
# Settings: KB-V1 MDR cells viability, CellTiter-Glo, 72 h; activity change, negative = cytotoxicity: at 46.1 µM (top of the series)
# Outline: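 Cells of the MDR subline KB-V1 are plated, dosed with compound at multiple concentrations, and incubated 72 h at 37 degrees C; CellTiter-Glo is then added and luminescence read after 10 min.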
# % is set by controls: 0 for no effect and ±100 for the full control effect; potency is the fitted concentration of half-maximal effect.
Structure (SMILES),Potency,"activity change, negative = cytotoxicity"
CC(NCCN(C)C)C1CCC2C3CCc4cc(O)ccc4C3CCC12C (stereo not given),"inconclusive: 7.31 µM [cytotoxic, partial curve, poor fit]",
C=C[C@@H]1c2cc(C)ccc2N(S(=O)(=O)c2ccc(C)cc2)[C@H](c2ccc(C(C)(F)F)cc2)C1(C#N)C#N,inactive,
O=C(c1ccc(-n2cncn2)c([N+](=O)[O-])c1)N1CCN(S(=O)(=O)c2cccc(F)c2)CC1,"inconclusive: 23.1 µM [cytotoxic, single point]",
O=C(O)c1ccc(NC(=O)c2ccc(COc3ccccc3)o2)cc1,"inconclusive: 6.51 µM [rising, partial curve]",
CC(C)=CCc1c([C@@H]2CCc3ccc(O)cc3O2)cc2c(c1O)OC(C)(C)C=C2,"inconclusive: 8.2 µM [rising, partial curve]",
COc1cc2[nH]c(=O)n(CCCC(=O)NCc3ccccc3Cl)c(=O)c2cc1OC,"inconclusive: 14.6 µM [rising, partial curve, poor fit]",
CCCNC(=S)N1CCC(NC(=O)C23CC4CC(CC(C4)C2)C3)CC1,"inconclusive: 18.4 µM [cytotoxic, partial curve, poor fit]",
O=c1cnnc(Nc2ccccc2F)[nH]1,"inconclusive: 29.1 µM [rising, single point]",
CCOC(=O)N1CCN(c2cc(=O)n(-c3ccccc3C)c(=O)[nH]2)CC1,,inconclusive: 34.3%
CCC(=Nc1ccccc1OC)C1=C(O)CC(c2ccccc2)CC1=O (stereo not given),inactive,
COC(=O)C1CN(C(=O)COc2ccc(Cl)cc2C)c2ccccc2O1 (stereo not given),inactive,
COc1ccc(N2CCN(CC(=O)c3c(C)n(C)c4ccc(OC)cc34)CC2)cc1,inactive,
CCCNC(=O)c1cc2n(n1)CCCN(Cc1ccc(F)cc1)C2=O,inactive,
c1ccc(C[C@H]2COc3c4ccccc4nn32)cc1,"inconclusive: 18.4 µM [cytotoxic, single point]",
CN(c1cccc(Cl)c1)S(=O)(=O)c1cccc(C(=O)NC2=NCCS2)c1,active: 20.6 µM,
CC(C)c1ccc(S(=O)(=O)N2CCN(C(=O)c3ccco3)CC2)cc1,"inconclusive: 20.6 µM [cytotoxic, single point]",
COc1ccc2nc(Nc3nc(C)c(C(C)=O)s3)sc2c1,active: 18.4 µM,
CCOC(=O)C(C)Sc1nc2c(cnn2-c2ccc(F)cc2)c(=O)[nH]1 (stereo not given),"inconclusive: 20.6 µM [cytotoxic, single point]",
CCc1nc2ccc(C(=O)NCCCn3ccnc3)cn2c1N(C)Cc1cc2ccccc2s1,inactive,
COc1ccc(-c2csc3ncnc(Nc4ccc(OC)c(OC)c4)c23)cc1,"inconclusive: 0.651 µM [cytotoxic, full curve, poor fit]",

# Compounds from the list above that have a furan ring, fused or not (2):
Structure (SMILES),Potency,"activity change, negative = cytotoxicity"
O=C(O)c1ccc(NC(=O)c2ccc(COc3ccccc3)o2)cc1,"inconclusive: 6.51 µM [rising, partial curve]",
CC(C)c1ccc(S(=O)(=O)N2CCN(C(=O)c3ccco3)CC2)cc1,"inconclusive: 20.6 µM [cytotoxic, single point]",
